Measured values: PMC6737913
No constants are given. Whether binding was seen depends on the method and setting. Binding seen in cells or lysates may run through a third protein. Some binding calls cover weakened binding; strength is not graded here. Where a sequence is shown, tags or fusion partners need not be part of it.

Amino acid sequences for entries named in this document (tags omitted).
UniProt Q63357: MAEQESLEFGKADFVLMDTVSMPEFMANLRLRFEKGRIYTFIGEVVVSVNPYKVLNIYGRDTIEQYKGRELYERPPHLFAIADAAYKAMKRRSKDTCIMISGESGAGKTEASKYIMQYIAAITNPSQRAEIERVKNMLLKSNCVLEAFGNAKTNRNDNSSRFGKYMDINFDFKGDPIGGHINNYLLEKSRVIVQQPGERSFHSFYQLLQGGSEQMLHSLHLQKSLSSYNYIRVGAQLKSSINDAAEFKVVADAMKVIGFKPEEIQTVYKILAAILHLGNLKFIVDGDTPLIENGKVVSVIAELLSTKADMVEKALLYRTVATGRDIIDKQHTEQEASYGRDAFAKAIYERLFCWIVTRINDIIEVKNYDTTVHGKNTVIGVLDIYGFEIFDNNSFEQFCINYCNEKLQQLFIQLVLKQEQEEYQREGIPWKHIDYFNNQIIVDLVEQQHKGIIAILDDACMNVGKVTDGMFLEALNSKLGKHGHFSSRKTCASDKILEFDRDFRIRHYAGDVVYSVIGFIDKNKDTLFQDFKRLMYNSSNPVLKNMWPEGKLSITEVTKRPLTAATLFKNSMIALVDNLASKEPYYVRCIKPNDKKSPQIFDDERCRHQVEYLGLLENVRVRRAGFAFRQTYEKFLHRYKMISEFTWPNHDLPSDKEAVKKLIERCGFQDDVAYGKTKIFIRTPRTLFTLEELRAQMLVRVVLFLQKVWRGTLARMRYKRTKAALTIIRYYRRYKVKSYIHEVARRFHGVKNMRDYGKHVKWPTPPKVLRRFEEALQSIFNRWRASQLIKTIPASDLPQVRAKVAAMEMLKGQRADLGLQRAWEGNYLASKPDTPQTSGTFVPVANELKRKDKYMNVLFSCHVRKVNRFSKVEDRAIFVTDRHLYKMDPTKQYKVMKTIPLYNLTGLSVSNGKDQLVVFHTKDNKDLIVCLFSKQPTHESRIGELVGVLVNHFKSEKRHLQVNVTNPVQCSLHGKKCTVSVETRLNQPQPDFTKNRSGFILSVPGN
UniProt Q9Y4I1: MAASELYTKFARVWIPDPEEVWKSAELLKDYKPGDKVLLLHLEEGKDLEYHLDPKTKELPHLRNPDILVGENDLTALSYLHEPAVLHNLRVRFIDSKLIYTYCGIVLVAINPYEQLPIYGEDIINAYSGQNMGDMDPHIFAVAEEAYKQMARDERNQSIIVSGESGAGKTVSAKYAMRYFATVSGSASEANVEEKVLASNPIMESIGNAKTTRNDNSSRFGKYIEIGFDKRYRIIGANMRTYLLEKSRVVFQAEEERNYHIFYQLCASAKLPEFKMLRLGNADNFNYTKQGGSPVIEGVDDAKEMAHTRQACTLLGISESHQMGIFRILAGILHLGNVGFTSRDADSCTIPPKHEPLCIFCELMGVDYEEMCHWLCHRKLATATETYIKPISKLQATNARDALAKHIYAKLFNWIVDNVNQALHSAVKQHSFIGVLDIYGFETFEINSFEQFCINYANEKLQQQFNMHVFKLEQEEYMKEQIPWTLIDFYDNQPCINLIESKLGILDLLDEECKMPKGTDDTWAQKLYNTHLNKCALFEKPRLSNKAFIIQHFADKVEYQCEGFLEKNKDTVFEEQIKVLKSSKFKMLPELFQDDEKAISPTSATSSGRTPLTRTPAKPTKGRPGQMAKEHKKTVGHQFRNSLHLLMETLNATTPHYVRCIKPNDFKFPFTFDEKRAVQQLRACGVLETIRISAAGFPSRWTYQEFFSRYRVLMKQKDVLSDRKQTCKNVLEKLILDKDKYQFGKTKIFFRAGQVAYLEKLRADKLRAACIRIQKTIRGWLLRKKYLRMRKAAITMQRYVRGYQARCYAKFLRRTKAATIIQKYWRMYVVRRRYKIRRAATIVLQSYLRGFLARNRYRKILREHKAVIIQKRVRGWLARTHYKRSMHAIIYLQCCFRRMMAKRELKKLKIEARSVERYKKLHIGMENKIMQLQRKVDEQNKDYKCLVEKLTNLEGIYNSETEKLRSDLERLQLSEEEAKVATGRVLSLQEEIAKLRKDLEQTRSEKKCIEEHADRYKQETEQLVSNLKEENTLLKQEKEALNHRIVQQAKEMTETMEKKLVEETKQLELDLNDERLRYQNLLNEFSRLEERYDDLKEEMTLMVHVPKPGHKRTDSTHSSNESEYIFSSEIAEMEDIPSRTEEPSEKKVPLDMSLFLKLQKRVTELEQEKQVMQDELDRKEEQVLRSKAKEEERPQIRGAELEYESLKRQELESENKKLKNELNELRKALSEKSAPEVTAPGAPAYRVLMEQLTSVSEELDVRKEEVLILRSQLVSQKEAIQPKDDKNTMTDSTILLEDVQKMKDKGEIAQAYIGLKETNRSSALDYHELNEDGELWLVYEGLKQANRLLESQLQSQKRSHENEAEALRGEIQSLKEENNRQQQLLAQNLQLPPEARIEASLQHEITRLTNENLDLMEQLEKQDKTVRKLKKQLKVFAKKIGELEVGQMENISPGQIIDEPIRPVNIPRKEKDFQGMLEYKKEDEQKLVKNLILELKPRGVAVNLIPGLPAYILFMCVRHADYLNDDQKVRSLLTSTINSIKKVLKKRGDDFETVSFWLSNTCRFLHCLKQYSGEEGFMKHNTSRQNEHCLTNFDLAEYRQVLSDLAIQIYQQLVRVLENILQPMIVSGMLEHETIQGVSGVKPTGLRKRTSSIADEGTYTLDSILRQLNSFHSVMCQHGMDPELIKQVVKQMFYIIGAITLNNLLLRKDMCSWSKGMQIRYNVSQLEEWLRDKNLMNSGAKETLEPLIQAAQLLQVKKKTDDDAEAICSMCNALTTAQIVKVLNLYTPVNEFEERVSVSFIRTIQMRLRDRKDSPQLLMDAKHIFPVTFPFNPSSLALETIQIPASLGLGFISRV
UniProt Q9QYF3: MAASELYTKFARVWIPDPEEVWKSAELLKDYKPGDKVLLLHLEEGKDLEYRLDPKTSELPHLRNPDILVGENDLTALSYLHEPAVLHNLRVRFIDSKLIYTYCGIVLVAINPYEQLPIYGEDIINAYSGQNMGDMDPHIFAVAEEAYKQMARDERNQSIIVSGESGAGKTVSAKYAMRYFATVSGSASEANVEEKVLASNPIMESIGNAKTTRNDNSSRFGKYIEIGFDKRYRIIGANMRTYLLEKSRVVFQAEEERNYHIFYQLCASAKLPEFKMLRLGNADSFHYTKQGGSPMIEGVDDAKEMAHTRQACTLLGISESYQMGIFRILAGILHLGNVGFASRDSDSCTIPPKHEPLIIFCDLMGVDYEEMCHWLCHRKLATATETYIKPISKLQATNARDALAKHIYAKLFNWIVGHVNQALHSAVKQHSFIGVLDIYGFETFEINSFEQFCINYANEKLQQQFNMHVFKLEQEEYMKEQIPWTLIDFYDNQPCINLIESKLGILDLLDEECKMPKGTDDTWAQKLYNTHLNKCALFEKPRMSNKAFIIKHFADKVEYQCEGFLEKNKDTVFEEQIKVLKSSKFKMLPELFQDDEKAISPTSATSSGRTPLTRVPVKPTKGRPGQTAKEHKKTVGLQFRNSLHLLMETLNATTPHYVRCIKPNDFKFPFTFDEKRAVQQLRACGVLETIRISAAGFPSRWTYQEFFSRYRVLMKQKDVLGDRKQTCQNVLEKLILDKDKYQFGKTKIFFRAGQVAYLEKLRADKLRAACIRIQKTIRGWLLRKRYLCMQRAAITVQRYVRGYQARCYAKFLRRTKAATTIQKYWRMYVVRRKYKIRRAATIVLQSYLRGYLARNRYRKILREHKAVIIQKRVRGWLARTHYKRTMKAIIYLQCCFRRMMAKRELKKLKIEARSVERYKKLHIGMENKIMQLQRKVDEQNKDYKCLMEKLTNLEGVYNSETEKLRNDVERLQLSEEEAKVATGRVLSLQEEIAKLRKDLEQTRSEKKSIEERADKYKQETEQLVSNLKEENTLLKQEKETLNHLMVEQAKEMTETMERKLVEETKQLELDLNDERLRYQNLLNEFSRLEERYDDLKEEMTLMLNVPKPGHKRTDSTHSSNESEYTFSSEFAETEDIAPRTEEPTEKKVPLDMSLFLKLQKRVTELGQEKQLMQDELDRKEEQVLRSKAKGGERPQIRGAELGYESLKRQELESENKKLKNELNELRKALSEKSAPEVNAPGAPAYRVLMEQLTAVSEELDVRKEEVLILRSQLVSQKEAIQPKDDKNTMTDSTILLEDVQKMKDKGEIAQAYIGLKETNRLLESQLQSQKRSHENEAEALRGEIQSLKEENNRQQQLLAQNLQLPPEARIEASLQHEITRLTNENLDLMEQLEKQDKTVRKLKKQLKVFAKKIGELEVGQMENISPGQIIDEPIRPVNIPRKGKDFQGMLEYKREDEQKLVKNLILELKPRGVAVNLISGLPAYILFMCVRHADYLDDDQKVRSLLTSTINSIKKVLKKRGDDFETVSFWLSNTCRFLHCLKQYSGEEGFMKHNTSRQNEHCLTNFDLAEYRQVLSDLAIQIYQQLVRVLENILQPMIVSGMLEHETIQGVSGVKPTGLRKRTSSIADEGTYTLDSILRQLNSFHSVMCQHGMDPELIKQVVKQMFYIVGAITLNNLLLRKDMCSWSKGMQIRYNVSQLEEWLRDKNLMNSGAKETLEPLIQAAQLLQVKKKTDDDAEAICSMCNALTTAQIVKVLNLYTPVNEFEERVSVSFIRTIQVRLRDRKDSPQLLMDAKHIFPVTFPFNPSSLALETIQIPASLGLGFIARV
UniProt P70569: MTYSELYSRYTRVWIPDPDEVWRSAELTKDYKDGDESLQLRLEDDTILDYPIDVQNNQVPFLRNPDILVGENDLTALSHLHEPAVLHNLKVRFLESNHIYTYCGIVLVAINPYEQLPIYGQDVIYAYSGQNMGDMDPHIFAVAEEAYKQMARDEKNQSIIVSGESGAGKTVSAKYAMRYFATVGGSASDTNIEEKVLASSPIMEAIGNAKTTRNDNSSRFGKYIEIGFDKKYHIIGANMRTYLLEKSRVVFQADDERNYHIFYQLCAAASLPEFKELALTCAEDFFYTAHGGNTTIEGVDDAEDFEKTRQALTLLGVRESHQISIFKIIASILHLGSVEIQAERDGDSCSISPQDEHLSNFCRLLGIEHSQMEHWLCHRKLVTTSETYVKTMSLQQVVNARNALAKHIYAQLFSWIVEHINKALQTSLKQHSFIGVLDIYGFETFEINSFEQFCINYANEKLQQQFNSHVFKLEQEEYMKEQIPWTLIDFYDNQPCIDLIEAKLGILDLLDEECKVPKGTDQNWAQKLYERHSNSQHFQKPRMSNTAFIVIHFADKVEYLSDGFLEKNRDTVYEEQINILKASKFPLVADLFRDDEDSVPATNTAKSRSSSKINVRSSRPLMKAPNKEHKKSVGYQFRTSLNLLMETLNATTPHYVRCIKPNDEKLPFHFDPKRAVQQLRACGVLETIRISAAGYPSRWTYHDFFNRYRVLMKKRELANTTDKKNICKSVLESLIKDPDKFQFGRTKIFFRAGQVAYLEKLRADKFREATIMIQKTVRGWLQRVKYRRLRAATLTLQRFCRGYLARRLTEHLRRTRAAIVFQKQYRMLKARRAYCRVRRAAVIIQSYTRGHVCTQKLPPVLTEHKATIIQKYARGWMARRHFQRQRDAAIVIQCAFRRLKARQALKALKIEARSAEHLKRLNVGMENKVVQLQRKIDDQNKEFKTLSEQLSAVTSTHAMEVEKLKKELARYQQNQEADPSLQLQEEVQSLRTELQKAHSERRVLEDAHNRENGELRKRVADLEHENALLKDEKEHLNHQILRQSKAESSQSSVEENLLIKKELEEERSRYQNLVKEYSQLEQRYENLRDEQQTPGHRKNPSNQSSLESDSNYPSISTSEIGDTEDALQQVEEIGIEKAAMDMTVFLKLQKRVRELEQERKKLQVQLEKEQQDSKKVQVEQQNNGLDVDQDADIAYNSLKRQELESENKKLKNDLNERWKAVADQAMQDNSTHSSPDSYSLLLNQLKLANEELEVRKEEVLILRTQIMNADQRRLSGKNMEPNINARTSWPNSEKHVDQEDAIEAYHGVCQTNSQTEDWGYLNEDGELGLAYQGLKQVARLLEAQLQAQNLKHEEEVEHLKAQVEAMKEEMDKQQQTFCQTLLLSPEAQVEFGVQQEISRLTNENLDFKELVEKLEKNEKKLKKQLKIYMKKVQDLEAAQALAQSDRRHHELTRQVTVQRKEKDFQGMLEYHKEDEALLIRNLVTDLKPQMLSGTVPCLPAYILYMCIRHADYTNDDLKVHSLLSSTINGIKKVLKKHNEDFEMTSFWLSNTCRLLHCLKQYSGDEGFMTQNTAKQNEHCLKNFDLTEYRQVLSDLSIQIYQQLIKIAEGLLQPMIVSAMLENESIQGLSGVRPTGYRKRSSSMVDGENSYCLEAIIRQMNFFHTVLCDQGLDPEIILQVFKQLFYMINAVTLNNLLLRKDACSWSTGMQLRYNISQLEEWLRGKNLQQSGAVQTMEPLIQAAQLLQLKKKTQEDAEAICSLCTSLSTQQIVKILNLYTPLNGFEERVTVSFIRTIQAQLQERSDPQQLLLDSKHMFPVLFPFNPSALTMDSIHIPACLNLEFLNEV

Experiments:
[1] = biological target: T1, bio-GFP–synaptopodin (biotinylated GFP–synaptopodin) (mouse) (UniProt Q8CC35); test: pull-down; bio-GFP–synaptopodin (or bio-GFP control) from HEK293T lysate held on Streptavidin Dynabeads, washed (100/500 mM KCl), incubated with cleared rat brain lysate for 1 h at 4°C, washed five times; western blot of individual interactors; only the target purified
T1 sequence (chain, biotin (biotinylated; co-expressed with HA–BirA)): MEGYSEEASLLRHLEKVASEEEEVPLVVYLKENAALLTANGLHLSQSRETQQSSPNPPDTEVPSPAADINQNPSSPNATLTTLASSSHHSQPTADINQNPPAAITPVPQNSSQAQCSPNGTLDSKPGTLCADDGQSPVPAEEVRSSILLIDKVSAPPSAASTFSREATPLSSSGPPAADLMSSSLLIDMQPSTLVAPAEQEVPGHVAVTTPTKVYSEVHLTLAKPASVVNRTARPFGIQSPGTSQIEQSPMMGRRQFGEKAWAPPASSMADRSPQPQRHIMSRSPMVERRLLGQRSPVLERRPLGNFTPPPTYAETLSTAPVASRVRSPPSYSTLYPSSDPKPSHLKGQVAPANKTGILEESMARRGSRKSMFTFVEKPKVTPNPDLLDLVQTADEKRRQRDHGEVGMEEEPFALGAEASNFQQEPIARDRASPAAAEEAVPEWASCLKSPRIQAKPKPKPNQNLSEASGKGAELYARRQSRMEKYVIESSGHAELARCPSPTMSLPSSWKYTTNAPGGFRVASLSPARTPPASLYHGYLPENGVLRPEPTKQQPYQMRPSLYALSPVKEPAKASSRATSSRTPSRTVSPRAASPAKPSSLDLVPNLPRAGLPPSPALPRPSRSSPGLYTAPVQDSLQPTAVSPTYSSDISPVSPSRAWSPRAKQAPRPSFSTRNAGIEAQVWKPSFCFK

[2] = biological target: T1, bio-GFP–synaptopodin (biotinylated GFP–synaptopodin) (mouse); test: pull-down; bio-GFP–synaptopodin-coupled Streptavidin beads before incubation in brain lysate (Beads w/o): bound overnight at 4°C from HEK293T lysate (20 mM Tris-HCl pH 8, 150 mM NaCl, 1% Triton X-100, 5 mM MgCl2), washed with 100 mM and 500 mM KCl buffers; western blot for myosin Va and actin

binding [1] | binding [2] | Substance
binds | – | myosin Id (endogenous, rat brain) (from UniProt Q63357 1-1006)
– | no binding | myosin Va (endogenous, HEK293 cells) (from UniProt Q9Y4I1 1-1855)
binds | – | myosin Va (endogenous, rat brain) (from UniProt Q9QYF3 1-1828)
binds | – | myosin Vb (endogenous, rat brain) (from UniProt P70569 1-1846)
